Measured values: publication PMC6593402, “The Structure of an Injectisome Export Gate Demonstrates Conservation of Architecture in the Core Export Gate between Flagellar and Virulence Type III Secretion Systems” (mBio, 2019)
These are yes or no findings as the source states them, for the method shown. Some results given as binding are weak or reduced against the parent protein; the word gives no strength.

By UniProt entry, the sequences of proteins in these tests, tags left out.
UniProt P0A1L3: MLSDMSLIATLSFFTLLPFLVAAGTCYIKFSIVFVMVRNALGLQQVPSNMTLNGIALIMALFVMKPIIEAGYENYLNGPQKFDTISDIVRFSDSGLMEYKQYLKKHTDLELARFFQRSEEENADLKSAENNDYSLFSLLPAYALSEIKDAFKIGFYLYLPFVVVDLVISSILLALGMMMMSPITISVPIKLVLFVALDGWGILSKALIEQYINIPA
UniProt P0A1M4: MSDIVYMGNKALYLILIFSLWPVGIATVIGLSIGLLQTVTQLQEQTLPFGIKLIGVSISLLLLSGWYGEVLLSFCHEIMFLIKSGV

Molecular target: T1, Shigella flexneri SctT (Spa29) (Shigella flexneri) (UniProt P0A1M6)
T1 sequence: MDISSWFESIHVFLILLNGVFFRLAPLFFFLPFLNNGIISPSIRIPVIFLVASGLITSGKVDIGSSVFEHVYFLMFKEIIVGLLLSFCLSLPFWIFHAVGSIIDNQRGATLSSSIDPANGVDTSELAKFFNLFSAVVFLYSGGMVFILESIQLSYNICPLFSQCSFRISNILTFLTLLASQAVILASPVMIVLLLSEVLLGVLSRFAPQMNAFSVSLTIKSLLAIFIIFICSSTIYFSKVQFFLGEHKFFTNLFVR
Experiment: cryo-EM structure; SctRST co-expressed from the operon in E. coli, complex purified by the Dual-Strep tag on SctT and SEC; 0.01% LMNG in TBS (100 mM Tris, 150 mM NaCl, 1 mM EDTA, pH 8), 8.4 mg/ml; single-particle reconstruction at 3.5 Å, with further 3D classification of the particle set; both purified

For “Shigella flexneri SctR (Spa24) (from UniProt P0A1L3 1-216)”, the binding was “binds”.
In the case of “Shigella flexneri SctS (Spa9) (from UniProt P0A1M4 1-86)”, the binding is reported as “binds”.
